According to patent US11564392B2, “Methods of inactivation of viruses using n-methlyglucamide and its derivatives” (BAYER HEALTHCARE LLC, priority 2017, dated 2023):
Where two headings read alike, the source gives them in different places. At least one structure is not confirmed: it was looked up by name or label, or the drawing left a doubt. Some entries share one result that the patent states for a list of compounds.

Columns and labels:
X-MuLV [1] = format: cell-based, xenotropic murine leukemia virus
BVDV = format: cell-based, bovine viral diarrhea virus; settings: Mega 10 0.2-0.4%, Mega 9 1.0% (w/v); 2.0±1.0° C., 30 minutes
PRV = format: cell-based, porcine pseudorabies virus; settings: 0.2 and 0.3%, 2.0±1.0° C.
X-MuLV [2] = format: cell-based, xenotropic murine leukemia virus; settings: 0.2-0.4% (w/v), 2.0±1.0° C., 30 minutes

CCCCCCCCC(=O)N(C)C[C@H](O)[C@@H](O)[C@H](O)[C@H](O)CO [Mega 9, nonaoyl-N-methylglucamide]
log reduction factor (LRF) (X-MuLV [1]): ≥ 4.3
reduction of BVDV infectivity (BVDV): ≥ 10^5.14 fold

CCCCCCCCCCCC(=O)N(C)CC(O)C(O)C(O)C(O)CO (centres unmarked) [Mega 12, dodecanoyl-N-methylglucamide]
log reduction factor (LRF) (X-MuLV [1]): ≥ 4.3

CCCCCCCC(=O)N(C)C[C@H](O)[C@@H](O)[C@H](O)[C@H](O)CO [Mega 8, octanoyl-N-methylglucamide]
log reduction factor (LRF) (X-MuLV [1]): ≥ 4.3

CCCCCCCCCC(=O)N(C)C[C@H](O)[C@@H](O)[C@H](O)[C@H](O)CO [Mega 10, decanoyl-N-methylglucamide]
reduction of PRV infectivity (PRV; 15 minutes): ≥ 10^5.10 fold
reduction of PRV infectivity, immediately (PRV; immediately): ≥ 10^4.5 fold
log reduction factor (LRF) (X-MuLV [1]): ≥ 4.3
viral infectivity reduction (X-MuLV [1]): ≥ 10^4.80 fold
reduction of BVDV infectivity (BVDV): ≥ 10^5.14 fold
reduction of X-MuLV infectivity (X-MuLV [2]; human IgG 30 mg/mL): ≥ 10^4.46 fold
reduction of X-MuLV infectivity (X-MuLV [2]; human plasma 30 mg/mL): ≥ 10^3.50 fold
